Results from patent US8722674B2, “1,3,5-triazine-2,4,6-triamine compound or pharmaceutical acceptable salt thereof, and pharmaceutical composition comprising the same” (Hanall Biopharma Co., Ltd., priority 2007, dated 2014).
Some entries share one result that the patent states for a list of compounds.

Columns and labels:
Assay type in all cases: cell-based
Details in all cases: by comparison of used amounts vs control group (metformin 2 mM)
HepG2 cells [1] = experiment: Measurement of cholesterol synthesis ability (Amplex red fluorescence)
Text: (§1) Metformin that is widely used in type 2 diabetic patients inhibits the formation of glucose, the synthesis of cholesterol and triglyceride in liver cells and promote the absorption of glucose from blood vessels in the muscle cells. […] In the case of the ability to form cholesterol, triglyceride and glucose, the lower the numerical value, the better the effect. Numerical values for a control group become reference values.
(§2) As a hepatic cell model, HepG2 cells were used to measure cholesterol synthesis inhibitory ability, which is the important function of AMPK. The hepatic cell model HepG2 cells were cultured in 1% serum-containing media for 24 hours, and then treated with each of the compounds for 24 hours. Then, the cells were disrupted with lysis buffer (0.1 M potassium phosphate, pH 7.4, 0.05 M NaCl, 5 mM cholic acid, 0.1% Triton X-100). To the disrupted cells, the same volume of a reaction solution (2 U/ml cholesterol oxidizing agent, 2 U/ml peroxidase, 0.2 U/ml cholesterol esterase, and 300 μM Amplex red as a fluorescent factor) was added and allowed to react at 37° C. for 30 minutes. After completion of the reaction, the cells were measured with a fluorometer at a wavelength of 560/590 nm (ex/em), thus quantifying the amount of […] formed in the cells. A lower measurement value means an increased lipid production inhibitory ability.

HepG2 cells [2] = experiment: Measurement of triglyceride (Amplex red fluorescence)
Protocol: as §1
as §2, with “model,” for “model, HepG2 cells were used to measure cholesterol synthesis inhibitory ability, which is the important function of AMPK. The hepatic cell model”, “(0.1M” for “(0.1 M”, “(0.76” for “(2”, “glycerol kinase, […] peroxidase, 22.2 U/ml glycerol” for “cholesterol”, “agent,” for “agent, 2 U/ml peroxidase, 0.2 U/ml cholesterol esterase,”

HepG2 cells [3] = experiment: Measurement of gluconeogenesis (14C-lactate)
Protocol: as §1
As a hepatic cell model, HepG2 cells were cultured in 10% serum-containing high glucose media, and then treated with each of the compounds for 24 hours. Then, the cells were treated with 0.5 uCi 14C-lactate and 10 mM L-lactate, and cultured for 4 hours. After cultivation, the media of the cells were removed, and the cells were washed with PBS, treated with 0.1N NaOH and left to stand at room temperature for 1 hour. Then, the cells were neutralized with 1N HCl, and the amount of glucose formed in the cells was measured with a liquid scintillation counter. […] A lower measurement value means a stronger blood glucose lowering activity.

CC(C)c1ccc(Nc2nc(N)nc(N(C)C)n2)cc1 [Example 28, N2-(4-isopropylphenyl)-N4,N4-dimethyl-1,3,5-triazine-2,4,6-triamine]
at least 20 times: effect on cholesterol synthesis, times better than the control group (HepG2 cells [1]) | effect on triglyceride synthesis, times better than the control group (HepG2 cells [2]) | effect on gluconeogenesis, times better than the control group (HepG2 cells [3])

CN(C)c1nc(N)nc(N2CCCCCC2)n1 [Example 34, 6-(azepan-1-yl)-N2,N2-dimethyl-1,3,5-triazine-2,4-diamine]
at least 20 times: effect on cholesterol synthesis, times better than the control group (HepG2 cells [1]) | effect on triglyceride synthesis, times better than the control group (HepG2 cells [2]) | effect on gluconeogenesis, times better than the control group (HepG2 cells [3])

CN(C)c1nc(N)nc(Nc2ccccc2-c2ccccc2)n1 [Example 38, N2-(biphenyl-2-yl)-N4,N4-dimethyl-1,3,5-triazine-2,4,6-triamine]
at least 20 times: effect on cholesterol synthesis, times better than the control group (HepG2 cells [1]) | effect on triglyceride synthesis, times better than the control group (HepG2 cells [2]) | effect on gluconeogenesis, times better than the control group (HepG2 cells [3])
